Reference: PubChem BioAssay AID1259262 (Sanger Institute, 2017)
Purpose: 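Confirming kinase hits that combine with targeted drugs in colorectal cancer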 (follow-up of hits). Cell system: LS513 human colorectal cancer cells. Knock-down reagent: single siRNA against human genes. Challenge: anchor drug or DMSO vehicle: cetuximab 5 µg/ml, trametinib 10 nM or BYL719 1 µM; exposure length not given. Detection: 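Cell viability relative to non-targeting control siRNA, and a synergy score for each anchor drug, averaged over replicates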. Scale: synergy score with trametinib and synergy score with BYL719 and synergy score with cetuximab: higher = stronger synergistic loss of viability with drug. Hit rule: 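Called active if at least one of the three drugs gives a synergy score over 0.10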. Calls: active = synergy with at least one drug; inactive = no synergy with any drug.
In all, the deposit lists 160 reagents; below is an unselected part. In the full data, 93 (58%) are marked active. 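Calls refer to single siRNAs; gene-level validation required two or more siRNAs in several lines; synergy score formula unstated.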 Not all columns of the deposit are shown. Not stated in the record: the amount of reagent, the time to read-out.

no.	gene knocked down	PubChem SID	synergy score with trametinib	synergy score with BYL719	synergy score with cetuximab	Call
1	SYNCRIP (synaptotagmin binding cytoplasmic RNA interacting protein)	SID134270601	0.183	-0.0967	0.0628	active
2	SYNCRIP (synaptotagmin binding cytoplasmic RNA interacting protein)	SID134270602	0.0606	-0.00701	-0.0222	inactive
3	SYNCRIP (synaptotagmin binding cytoplasmic RNA interacting protein)	SID134270603	0.109	-0.109	-0.107	active
4	SYNCRIP (synaptotagmin binding cytoplasmic RNA interacting protein)	SID134270604	0.126	-0.0883	-0.0358	active
5	IRAK1 (interleukin 1 receptor associated kinase 1)	SID56476703	0.123	0.083	-0.131	active
6	IRAK1 (interleukin 1 receptor associated kinase 1)	SID56476704	0.0417	0.0119	0.00495	inactive
7	IRAK1 (interleukin 1 receptor associated kinase 1)	SID56476705	0.125	-0.0252	0.0491	active
8	IRAK1 (interleukin 1 receptor associated kinase 1)	SID56476706	-0.0372	0.464	-0.152	
9	GTF2H1 (general transcription factor IIH subunit 1)	SID56478227	-0.0136	-0.2	-0.0321	inactive
10	GTF2H1 (general transcription factor IIH subunit 1)	SID56478228	0.101	-0.18	0.0235	active
11	GTF2H1 (general transcription factor IIH subunit 1)	SID56478229	-0.147	-0.13	-0.0549	inactive
12	GTF2H1 (general transcription factor IIH subunit 1)	SID56478230	0.13	-0.0855	-0.0384	active
13	SF3B1 (splicing factor 3b subunit 1)	SID152148776	-0.0616	-0.126	-0.0542	inactive
14	SF3B1 (splicing factor 3b subunit 1)	SID152150545	0.0193	-0.0336	-0.0176	inactive
15	SF3B1 (splicing factor 3b subunit 1)	SID152153930	0.0286	-0.00652	0.0419	inactive
16	SF3B1 (splicing factor 3b subunit 1)	SID152156441	0.00731	-0.0607	0.0107	inactive
17	MAP3K8 (mitogen-activated protein kinase kinase kinase 8)	SID56475911	0.0723	-0.182	-0.0678	inactive
18	MAP3K8 (mitogen-activated protein kinase kinase kinase 8)	SID56475912	0.0859	-0.103	0.000471	inactive
19	MAP3K8 (mitogen-activated protein kinase kinase kinase 8)	SID56475913	0.00811	-0.155	-0.15	inactive
20	MAP3K8 (mitogen-activated protein kinase kinase kinase 8)	SID56475914	0.215	-0.00721	0.0901	active
21	EPHA6 (EPH receptor A6)	SID56477259	0.111	-0.188	-0.202	active
22	EPHA6 (EPH receptor A6)	SID56477260	0.031	-0.0935	-0.0763	inactive
23	EPHA6 (EPH receptor A6)	SID56477261	0.0452	-0.139	-0.0305	inactive
24	EPHA6 (EPH receptor A6)	SID56477262	0.131	-0.029	-0.0367	active
25	RPS6KA4 (ribosomal protein S6 kinase A4)	SID56476603	-0.00614	-0.122	-0.0616	inactive
26	RPS6KA4 (ribosomal protein S6 kinase A4)	SID56476604	0.138	-0.186	-0.11	active
27	RPS6KA4 (ribosomal protein S6 kinase A4)	SID56476605	0.246	-0.0299	-0.017	active
28	RPS6KA4 (ribosomal protein S6 kinase A4)	SID56476606	0.409	0.0307	0.0541	active
29	MAPKAPK2 (MAPK activated protein kinase 2)	SID56475927	0.0375	-0.053	-0.00257	inactive
30	MAPKAPK2 (MAPK activated protein kinase 2)	SID56475928	0.136	-0.134	-0.0602	active
31	MAPKAPK2 (MAPK activated protein kinase 2)	SID56475929	0.0811	0.0109	-0.0187	inactive
32	MAPKAPK2 (MAPK activated protein kinase 2)	SID56475930	0.174	-0.0728	-0.0706	active
33	PIM1 (Pim-1 proto-oncogene, serine/threonine kinase)	SID56476199	0.122	-0.125	-0.0232	active
34	PIM1 (Pim-1 proto-oncogene, serine/threonine kinase)	SID56476200	0.238	-0.134	-0.017	active
35	PIM1 (Pim-1 proto-oncogene, serine/threonine kinase)	SID56476201	0.029	-0.141	-0.127	inactive
36	PIM1 (Pim-1 proto-oncogene, serine/threonine kinase)	SID56476202	0.0803	-0.162	-0.186	inactive
37	GRK5 (G protein-coupled receptor kinase 5)	SID56476519	0.114	-0.226	-0.11	active
38	GRK5 (G protein-coupled receptor kinase 5)	SID56476520	0.111	-0.226	-0.11	active
39	GRK5 (G protein-coupled receptor kinase 5)	SID56476521	0.157	-0.099	-0.0789	active
40	GRK5 (G protein-coupled receptor kinase 5)	SID56476522	0.053	-0.0354	0.0631	inactive
41	PLK1 (polo like kinase 1)	SID56475783	0.0239	-0.0787	-0.0922	inactive
42	PLK1 (polo like kinase 1)	SID56475784	0.0907	0.00697	0.0247	inactive
43	PLK1 (polo like kinase 1)	SID56475785	0.075	0.0558	0.0607	inactive
44	PLK1 (polo like kinase 1)	SID56475786	0.0426	-0.00537	-0.00284	inactive

As entered above:
MAPKAPK2 (MAPK activated protein kinase 2) [SID56475927], synergy score with BYL719 = -0.053
For “Call”, MAPKAPK2 (MAPK activated protein kinase 2) [SID56475928] is entered as active
Under “synergy score with cetuximab”, SF3B1 (splicing factor 3b subunit 1) [SID152156441] reads 0.0107
Result for GTF2H1 (general transcription factor IIH subunit 1) [SID56478227] in “synergy score with trametinib”: -0.0136
